PMC12193022

B1: NOC3 (nucleolar complex-associated protein 3) domain-containing protein PF3D7_1466800 (protein, UniProt Q8IKG9 1-902)
chain: MDFKKNNNKNKGNEKDKDQGGQPYEMRTRTFNQDVTLRLNRENFSLPKIQRNGSLKYDEGREIFEGENTDDDTKLSKKKQKEVLNLKKLLENMEKYNDFNKKSNQGTKNALDEEMKRISSMMDYYKDLKSMIAAISSSIMGDPNTQVEKLELLFFIFYESLKRKREILYIKLNNNLYELRRMDAEIKHEDENVKYMNEKNQESHDEYNEEAVKKNFRYISNLNILSCISICTILKSITPSYKIIMSEEKNEENDNNDNASRGNNNMHTNNKPGNPTKNFSKLIENVNKVEKLIVKFFRRFCRLLKENISTNPIVFVNLLCELVGVNLYLSREENLLQYLIIYGNLAVYSNKKYNCNMHILGNVNEIKNKKKFKILCAKCVVTIKEIIGNDSNLLFTLNLVDNFSNILFNNEKNISLNLLKVFSNINIKEKKANARTYANDSTNIHGDNNTDLNAKMNIGGDIKVVDVHAEKILERLFVIYLCVLKEYEKHPPKILKYSLRAISRYSMYINKFIMDDILFEIKNLAAIKTVSSTIRIICIVVYLEIYNKMNDTIYVDCSWVGNIILELLDLSYIPNSTNSSSTNKGTRGNNNNGNKKSSNDSDAESFNSDLYNSMKNDAYKYSTDSDDIERRLTKGIENEKQLYHKYKYSVKIIKSVDLLLKTKSFTINYTNFKSSNSDLLYKIIYQLFNIMVHMDFEVGIFILQFINSIFSKYPLIRCICEEEGIVVSFMDEDLSVFFHNILLHSSFFKELSCEALNISMNNSNEEYKKIVEKFIKEQEDNEIEHKIIKFSLDVNDEDILNQARFMSYDPNGSIISDKKKYEENKKNVENIIKLDKKFKKVLYEHRRKPKNPVNTSSNTNDSTNNESSYELTVKDLIYVTYSKYDDLIKCFEKKHKKDATKN
B2: ALBA4 (protein, UniProt A0A5K1K8Y8 1-372)
chain: MENDKKHNQKQNNVDENEFPNSKVLLVSVKRTRRFLERTARELLAGGTRYIILSGLGDALPLCVQLQSSLQSKNAANVVKIETSYSYFNSNYSYTPGLKIYMEKHPEFKGSRISPGYVSFHEKTDSFTPIYDENPNEYICSLNAGDNNLYVGGEGINGAFSELLSSHNQEVDKYESLFKELLTKAVNENGEKPDEEVKSVLYDNVDKKYPDVKLALCRIRNSLKKGSDHSTGSVFIVTFKKNFPHKKEKNMGMVYVVGPKGKNYNSVEEFLDEVQETAENLMTTLCDYNGLVKREEIKHVRMNTCRICLFSGSIFKHPNASKLDVAKAILNGLAVGYRHGPSPRLNFAYDENVFKDAWVETTGLQVFNHNEQ
B3: ALBA3 (protein, UniProt Q8IJX8 1-107)
chain: MASTEEVSQERSENSIQVSMTKKPTFYARIGKRMFTGNEEKNPFDEVIITGLGNATKIAIGAASIMEKEDIGQIVKVQTAYFSSDRINRRIPKITIVLKKHPDFVAN
B4: 14-3-3I (PF3D7_0818200) (protein, UniProt C0H4V6 1-262)
chain: MATSEELKQLRCDCTYRSKLAEQAERYDEMADAMRTLVEQCVNNDKDELTVEERNLLSVAYKNAVGARRASWRIISSVEQKEMSKANVHNKNVAATYRKKVEEELNNICQDILNLLTKKLIPNTSESESKVFYYKMKGDYYRYISEFSCDEGKKEASNCAQEAYQKATDIAENELPSTHPIRLGLALNYSVFFYEILNQPHQACEMAKRAFDDAITEFDNVSEDSYKDSTLIMQLLRDNLTLWTSDLQGDQTEEKSKDEGLE
B5: ALBA1 (protein, UniProt Q8IAX8 1-248)
chain: MKKDREPIDEDEMRITSTGRMTNYVNYGAKILGDEDKKSIKIKATGNAIGKAVTLAEIIKRRFKGLHQITRCGSTVITDQYVSGQDNSEHVVQEKTVSFIEILLSREQLDMKDAGYQPPLDEKYVKEMTPEEIVNSRPFRRGGFRPRFYRGFRGGRGGFLRRGGYRGFGDRVYEPRSSFRGGRGSGYGGNFGRGGYRSGGGMGGGFRGGFRGGFRGGRDGGYRGGNRGGSRSGFRGGRGGFRGGRALS

molecular target: PfRNF1-GFP-BirA fusion protein (P. falciparum) (UniProt O97260); test: proximity labelling; BioID-MS: Percoll-enriched immature gametocytes of line PfRNF1-pffnpa-GFP-BirA (control WT NF54) treated with 50 µM biotin for 24 h; streptavidin-purified proteins, LC-MS with label-free quantification; at least two-fold enrichment over controls in three biological replicates, FDR 0.01

binding, binds:
B1
B2
B3
B4
B5

No constants are given. Whether binding was seen depends on the method and setting. Binding seen in cells or lysates may run through a third protein. A yes stands for co-enrichment or nearness to the bait. Other partners may have been found.
